The assay deals with Trichoderma reesei tsp1 (Trichoderma reesei). Put plainly: SBTI-agarose affinity purification from M44 culture supernatant; LC-MS/MS of gel sections.

Results are given in words; binding and its absence hold for the method and conditions named. In cells and extracts the contact can be indirect. A result given as binding can be weak or reduced; the word gives no strength.

B1: soybean trypsin inhibitor (SBTI) (protein, UniProt P01070 25-205, looked up)
chain: DFVLDNEGNPLENGGTYYILSDITAFGGIRAAPTGNERCPLTVVQSRNELDKGIGTIISSPYRIRFIAEGHPLSLKFDSFAVIMLCVGIPTEWSVVEDLPEGPAVKIGENKDAMDGWFRLERVSDDEFNNYKLVFCPQQAEDDKCGDIGISIDHDDGTRRLVVSKNKPLVVQFQKLDKESL
modifications: coupled to agarose in the affinity purification
For the molecule B1, the binding result is reported as “binds”.

The values are drawn from patent US20220290165A1.
